Values from PubChem BioAssay AID504774 (Drosophila RNAi Screening Center, 2011)
Assay: 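Fly genes whose loss alters survival after alkylation damage to DNA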 (primary screen). Cells: Drosophila Kc167 cells. Reagents: long dsRNA against Drosophila genes, about 0.25 µg dsRNA per well. Time to read-out: about 6 days: 3 days knock-down, then 3 days with or without MMS. Conditions: methyl methanesulphonate 0.004% (w/v) for 3 days after knock-down. Measured: 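Viability in wells given MMS, read as ATP luminescence, normalised by quantiles plate by plate and averaged across replicates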. Direction: mean viability with MMS: higher = more surviving cells after MMS.
The deposit covers about 23,000 reagents; this is a random part of those that have a named target and a result. 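Values are quantile-normalised luminescence on an arbitrary scale; higher means more cells surviving MMS.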 Names joined by + are all predicted targets of the reagent. Further read-outs or replicates are left out here.

| gene | DRSC id | mean viability with MMS |
| --- | --- | --- |
| CG4520 | DRSC15590 | 3.73e6 |
| MFS18 | DRSC00452 | 3.70e6 |
| CG32206 | DRSC09602 | 3.62e6 |
| CG32206 | DRSC10094 | 3.64e6 |
| CG32206 | DRSC10095 | 3.55e6 |
| CG32206 | DRSC10096 | 3.66e6 |
| CG32206 | DRSC11080 | 3.66e6 |
| CG18258 | DRSC19798 | 3.39e6 |
| jumu | DRSC16651 | 3.45e6 |
| meng | DRSC02134 | 3.57e6 |
| CG5281 | DRSC15761 | 3.49e6 |
| Mdr65 | DRSC11220 | 3.50e6 |
| Cpr76Bc | DRSC11062 | 3.52e6 |
| CG13658 | DRSC14659 | 3.53e6 |
| CG1635 | DRSC15131 | 3.53e6 |
| sip3 | DRSC15402 | 3.68e6 |
| Strip | DRSC08194 | 3.48e6 |
| koi | DRSC04980 | 3.61e6 |
| CG42518 + MED9 | DRSC06917 | 3.38e6 |
| CG13795 | DRSC02299 | 3.50e6 |
| Sec3 | DRSC10384 | 3.58e6 |
| jhamt | DRSC01985 | 3.37e6 |
| YME1L | DRSC04378 | 3.71e6 |
| CG31548 | DRSC22640 | 3.46e6 |
| side-VI | DRSC12828 | 3.41e6 |
| side-VI | DRSC12830 | 3.42e6 |
| side-VI | DRSC14920 | 3.53e6 |
| side-VI | DRSC15624 | 3.35e6 |
| side-VI | DRSC23088 | 3.64e6 |

In a second layout: entries from further up.
gene,DRSC id,mean viability with MMS
CG31548,DRSC22640,3.46e6
side-VI,DRSC12828,3.41e6
side-VI,DRSC12830,3.42e6
